No constants are given. Whether binding was seen depends on the method and setting. Some results given as binding are weak or reduced against the parent protein; the word gives no strength.
Target: Bovine serum albumin (bovine) (UniProt P02769)
Assay: native gel or EMSA; blue native gel electrophoresis, no denaturing or reducing agents; 5% stacking and 8% resolving gel, Bis‐Tris/HCl pH 7.0, 100 V, 4 °C; detected by Coomassie Blue; both purified

Chains of the proteins cited; added tags and fusions are not shown. Residues count along the entry.
UniProt P02769, residues 25-607: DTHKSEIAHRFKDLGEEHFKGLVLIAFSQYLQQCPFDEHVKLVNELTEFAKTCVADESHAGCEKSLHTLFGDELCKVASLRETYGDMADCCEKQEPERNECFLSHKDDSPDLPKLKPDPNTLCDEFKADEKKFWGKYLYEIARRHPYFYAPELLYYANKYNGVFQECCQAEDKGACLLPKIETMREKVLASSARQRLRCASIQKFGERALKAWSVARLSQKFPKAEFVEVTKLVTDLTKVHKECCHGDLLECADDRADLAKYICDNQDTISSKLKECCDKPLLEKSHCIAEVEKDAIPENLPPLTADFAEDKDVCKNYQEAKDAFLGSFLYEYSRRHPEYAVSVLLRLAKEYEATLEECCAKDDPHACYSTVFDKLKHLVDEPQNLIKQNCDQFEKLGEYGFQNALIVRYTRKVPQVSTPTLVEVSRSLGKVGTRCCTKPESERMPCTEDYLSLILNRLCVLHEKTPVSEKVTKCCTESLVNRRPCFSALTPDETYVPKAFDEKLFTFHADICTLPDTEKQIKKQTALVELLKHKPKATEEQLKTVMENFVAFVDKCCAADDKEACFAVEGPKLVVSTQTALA

In the case of “Bovine serum albumin (from UniProt P02769 25-607)”, the binding was “binds weakly”.
